Results are given in words; binding and its absence hold for the method and conditions named. Some entries that bind do so weakly or less than the wild type. For part of these data: Where a sequence is shown, tags or fusion partners need not be part of it.
Legend:
[1] = molecular target: T1, chimeric SIRPα of B-hSIRPA mice (IgV domain of human SIRPα; IgC1/C2, transmembrane and intracellular domains of mouse SIRPα) on primary monocytes (human; mouse) (UniProt P78324+P97797); test: FACS
[2] = molecular target: T2, 6×His tagged C57BL/6 mouse SIRPα ECD recombinant protein (mouse (C57BL/6)) (UniProt P97797); test: ELISA on coated mouse SIRPα (C57BL/6) ECD, antibody at 10, 1 and 0.1 ug/ml [right panel mSIRPα ECD (C57BL/6]
T2 sequence: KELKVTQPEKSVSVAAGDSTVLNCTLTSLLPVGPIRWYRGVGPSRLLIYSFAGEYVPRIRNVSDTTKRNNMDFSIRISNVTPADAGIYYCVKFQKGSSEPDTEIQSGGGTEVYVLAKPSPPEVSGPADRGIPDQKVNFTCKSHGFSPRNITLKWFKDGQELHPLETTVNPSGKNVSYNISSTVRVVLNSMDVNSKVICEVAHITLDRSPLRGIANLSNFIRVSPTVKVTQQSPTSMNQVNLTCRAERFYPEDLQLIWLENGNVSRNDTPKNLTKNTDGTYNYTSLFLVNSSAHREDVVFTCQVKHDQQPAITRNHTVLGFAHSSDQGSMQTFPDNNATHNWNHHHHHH

Chains of the proteins cited; added tags and fusions are not shown. Lines headed by an entry give the natural chain unless they say otherwise; changes in a name come on top. A line that says so, or that is headed by a name, gives the form on record, which may keep a tag or linker.
6×His tagged human SIRPα v1 ECD recombinant protein (P78324, form named): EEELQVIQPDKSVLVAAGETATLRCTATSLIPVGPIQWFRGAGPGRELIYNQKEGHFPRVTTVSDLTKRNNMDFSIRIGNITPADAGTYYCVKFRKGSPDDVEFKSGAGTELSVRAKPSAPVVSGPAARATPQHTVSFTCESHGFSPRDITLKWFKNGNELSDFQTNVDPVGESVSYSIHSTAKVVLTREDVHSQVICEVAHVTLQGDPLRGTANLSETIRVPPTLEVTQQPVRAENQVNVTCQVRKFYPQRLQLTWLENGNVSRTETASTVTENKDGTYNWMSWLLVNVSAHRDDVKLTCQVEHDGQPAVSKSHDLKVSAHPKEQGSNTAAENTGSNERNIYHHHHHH

[3] = molecular target: T2, 6×His tagged C57BL/6 mouse SIRPα ECD recombinant protein (mouse (C57BL/6)); test: ELISA on coated mouse SIRPα (C57BL/6) ECD [Continued) F]
[4] = molecular target: T1, chimeric SIRPα of B-hSIRPA mice (IgV domain of human SIRPα; IgC1/C2, transmembrane and intracellular domains of mouse SIRPα) on primary monocytes (human; mouse); test: FACS on B-hSIRPA mouse monocytes (IgV)
[5] = molecular target: full length cyno SIRPα stably expressed on CHOK1 cells (cynomolgus monkey); test: FACS, 10 nM
[6] = molecular target: full length cyno SIRPα stably expressed on CHOK1 cells (cynomolgus monkey); test: FACS
[7] = molecular target: 6×His tagged human SIRPα v1 ECD recombinant protein (human) (UniProt P78324); test: SPR
[8] = molecular target: T2, 6×His tagged C57BL/6 mouse SIRPα ECD recombinant protein (mouse (C57BL/6)); test: ELISA
[9] = molecular target: T2, 6×His tagged C57BL/6 mouse SIRPα ECD recombinant protein (mouse (C57BL/6)); test: SPR

Measured: binding

B1: chimeric antibody 035c (antibody, V domains shown)
VH: QIQLVQSGPELRKPGETVKISCKASGYSFTNYAMNWVKQAPGKVLKWMGFINTYTGEPTYADDFKGRFAFSLETSASTAYLQINNLKNEDTATYFCTRTRGYYDFDGGAFDYWGQGTSLTVSS
VL: DIVMTQSQKFMSTSIGDRVSVTCKASQNVGTHLAWYQQKPGQSPKALIFSASYRYIGVPDRFTGSGSGTDFTLTITNVQSEDLAEYFCQQYNTYPLTFGAGTKLELK
binds: [1] | [2] | [3] | [4] | [5]

B2: humanized antibody hu035.03 (antibody, V domains shown)
VH: QIQLVQSGSELKKPGASVKVSCRARGYTLTDYAMNWVRQAPGQGLEWMGFINTYTGEPTYAQGFKGRFVFSLDTSVSTAYLQIGSLKAEDTAVYYCARTRGYYDFDGGAFDYWGQGTLVTVSS
VL: DIQMTQSPSSLSASVGDRVTITCRASQNVGTHLAWYQQKPGKSPKALIFSASYRYIGVPSRFSGSGSGTDFTLTISSLQPEDFATYYCQQYNTYPLTFGQGTKLEIK
binds: [6] | [7] | [3] | [8]

B3: humanized antibody hu035.02 (antibody, V domains shown)
VH: QIQLVQSGSELKKPGASVKVSCRARGYTLTDYAMNWVRQAPGQGLEWMGFINTYTGEPTYAQGFKGRFVFSLDTSVSTAYLQIGSLKAEDTAVYYCARTRGYYDFDGGAFDYWGQGTLVTVSS
VL: DIQMTQSPSSLSASVGDRVTITCRASQNVGTHLAWYQQKPGKAPKSLIYSASYRYIGVPSRFSGSGSGTDFTLTISSLQPEDFATYYCQQYNTYPLTFGQGTKLEIK
binds: [6] | [7] | [3] | [8]

B4: humanized antibody hu035.13 (antibody, V domains shown)
VH: QIQLVQSGSELKKPGASVKVSCKASGYSITNYAMNWVRQAPGQGLEWMGFINTYTGEPTYAQGFKGRFVFSLDTSVSTAYLQISSLKAEDTAVYYCARTRGYYDFDGGAFDYWGQGTLVTVSS
VL: DIQMTQSPSRLGASVGDRVTITCRASQNVGTHLAWYQQKPGKAPKSLIYSAIYRYIGVPSRFSGSGSGTDFTLTISSLQPEDFATYFCQQYNTYPLTFDQGTKLEIKR
binds: [6] | [9] | [7] | [3] | [8]

B5: humanized antibody hu035.09 (antibody, V domains shown)
VH: QIQLVQSGSELKKPGASVKVSCRAGGYTLTDYAMNWVRQAPGQGLEWMGFINTYTGEPTYAQGFKGRFVFSLDTSVSTAYLQIGSLKAEDTAVYYCARTRGYYDFDGGAFDYWGQGTLVTVSS
VL: DIQMTQSPSSLSASVGDRVTITCRASQNVGTHLAWYQQKPGKAPKSLIYSAIYRYIGVPSRFSGSGSGTDFTLTISSLQPEDFATYYCQQYNTYPLTFGQGTKLEIK
binds: [6] | [7] | [3] | [8]

B6: humanized antibody hu035.10 (antibody, V domains shown)
VH: QIQLVQSGSELKKPGASVKVSCRARGYTLTDYAMNWVRQAPGQGLEWMGFINTYTGEPTYAQGFKGRFVFSLDTSVSTAYLQIGSLKAEDTAVYYCARTRGYYDFDGGAFDYWGQGTLVTVSS
VL: DIQMTQSPSSLSASVGDRVTITCRASQNVGTHLAWYQQKPGKSPKALIFSAIYRYIGVPSRFSGSGSGTDFTLTISNLQPEDFATYYCQQYNTYPLTFGQGTKLEIK
binds: [6] | [9] | [7] | [3] | [8]

B7: humanized antibody hu035.14 (antibody, V domains shown)
VH: QIQLVQSGSELKKPGASVKVSCKASGYSITDYAMNWVRQAPGQGLEWMGFINTYTGEPTYAQGFKGRFVFSLDTSVSTAYLQISSLKAEDTAVYYCARTRGYYDFDGGAFDYWGQGTLVTVSS
VL: DIQMTQSPSSLSASVGDRVTITCRASQNVGTHLAWYQQKPGKSPKALIFSAIYRYIGVPSRFSGSGSGTDFTLTISNLQPEDFATYYCQQYNTYPLTFGQGTKLEIK
binds: [6] | [7] | [3] | [8]

B8: humanized antibody hu035.17 (antibody, V domains shown)
VH: QIQLVQSGSELKKPGASVKVSCRARGYTLTDYAMNWVRQAPGQGLEWMGFINTYTGEPTYAQGFKGRFVFSLDTSVSTAYLQIGSLKAEDTAVYYCARTRGYYDFDGGAFDYWGQGTLVTVSS
VL: DIQMTQSPSSLSASVGDRVTITCRASQNVGTHLAWYQQKPGKAPKSLIYSAIYRYIGVPSRFSGSGSGTDFTLTISSLQPEDFATYFCQQYNTYPLTFDQGTKLEIKR
binds: [6] | [9] | [7] | [3] | [8]

B9: chimeric antibody 001c (antibody, V domains shown)
VH: EVKLEESGGGLVQPGGSMKLSCVASGFTFRNYWMNWVRQSPERGLEWIAEISLKSNTYATHYAESVKGRFAISRDGSKSSFYLQMNDLRAEDTGIYYCTTFTKVVADWHLDVWGAGTTVTVSS
VL: DVLMTQTPLSLPVSLGDQASISCRSSQNIVHSNGNTYLEWYLQKPGQSPKLLIYKVSNRFSGVPDRFSGSGSGTDFTLRISRVEAEDLGVYYCFQGSHVPFTFGSGTKLEIK
binds: [5]

B10: chimeric antibody 002c (antibody, V domains shown)
VH: EVKLEESGGGLVQPGGSMILSCVASGFTFRNYWMNWVRQSPERGLEWIAEITLKSNTYATHYAESVKGRFAISRDDSKSSFYLQMNDLRPEDTGIYYCTTFTKVVADWHLDVWGAGTTVTVSS
VL: DVLMTQTPLSLPVSLGDQASISCRSSQNIVHSNGNTYLEWYLQKPGQSPKLLIYKISNRFSGVPDRFSGSGSGTDFTLRISRVEAEDLGVYYCFQGSHVPFTFGSGTKLEIQ
binds: [5]

B11: chimeric antibody 022c (antibody, V domains shown)
VH: QIQLVQSGPELKKPGETVKISCKASGYTFTDYAMHWVKQAPGKGLKWMGWKNTETGESTYAEDFKGRFAFFLETSASTAYLQINNVKNEDTATYFCARGGYGSNYVMDYWGQGTSVIVSS
VL: DIQMTQSSSSFSVSLGDRVTITCKASEDIYNRLAWYQQKPGNAPRLLISGATSLETGVPSRFSGSGSGKDYTLSITSLQTEDVATYYCQQYWNSPRTFGGGTKLEIK
binds: [5]

B12: chimeric antibody 032c (antibody, V domains shown)
VH: EVRLEESGGGLVQPGGSMKLSCVVSGFTFRNYWMNWVRQSPERGLEWIAEITLKSNTYATHYAESVKGRFAISRDDSKSSFYLQMNDLRPEDTGIYYCTTFTKVVADWHLDVWGAGTTVTVSS
VL: DVLMTQTPLSLPVNLGDQASISCRSSQNIVHSNGNTYLEWYLQKPGQSPKLLIYKVSNRFSGVPDRFSGSGSGTDFTLRISRVEAEDLGVYYCFQGSHVPFTFGSGTKLEIK
binds: [5]

B13: chimeric antibody 050c (antibody, V domains shown)
VH: QIQLVQSGPELKKPGETVKISCKASGYTFTHYSMHWVKQAPGKGLKWMGWINTETAEPTYVDDFKGRFAFSLEASASTAFFQINNLKNEDTATYFCARGGLRQGDYWGQGTTLTVSS
VL: QIVLTQSPPIMSASPGEKVTLTCSATSSVSASYLYWFQQKPGSSPKLWIYSTSNLASGVPARFSGSGSGTSYSLTISNMEPADAASYFCHQWSSYPYTFGGGTKLEIK
binds: [5]

B14: chimeric antibody 055c (antibody, V domains shown)
VH: EVKLVESEGGLVQPGDSMKLSCTASGFTFSDYFMTWIRQVPEKGLEWIANVNYDGRSTYYLDSLKSRFIISRDNANNILYLQMSSLKSEDTATYYCAREGSQTPLYAVDYWGQGTSVTVSS
VL: DIVMTQSQKFMSTTVGDRVNITCKASQNVGTAVAWYQQKPGQSPKLLIYLASNRYTGVPDRFTGSGSGTDFTLTVSDMRSEDLADYFCQQYSIYPFTFGSGTKLEIK
binds: [5]

Reference: patent publication US20210347908A1
